Source: US20100261710A1, “HDAC Inhibitors” (ARQULE, INC., priority 2007, published 2010)

Tested on: HDACs (nuclear HeLa extract)
Test: pan-HDAC fluorescent biochemical assay with nuclear HeLa extract
Details: HDAC peptide substrate, 60 min at 37° C.
Experimental: Substrate was synthesized in house. Stocks were prepared in DMSO (10 mM).
Compound working solution: Compounds dissolved in assay buffer at 4× Screening concentration. Activator solution: Trypsin (10 mg/mL) diluted 1:1600 in Assay Buffer containing 4 μM TSA.
Total reaction Volume: 40 μL
Reaction was allowed to run for 60 minutes at 37° C.
2. Combine in a white ½ area well plate: 10 μl of 4× compound (or buffer), 15 μl of substrate and 15 μl of HeLa extract. Mix well
3. Incubate at 37° C. for 60 min.
4. Prepare Activator solution. Dilute Trypsin 1:1600 in Assay Buffer+4μM TSA. 20 μl is needed per assay point.
5. Add 20 μl of prepared activator solution and mix thoroughly.
The hydroxamic-acid based compounds of the present invention were tested in the biochemical assay for their pan-HDAC inhibitory activity.

CC(=O)CCCCCNC(=O)c1cn2c3c(cccc13)CCC2 [compound 17, N-(6-oxoheptyl)-5,6-dihydro-4H-pyrrolo[3,2,1-ij]quinoline-1-carboxamide]
IC50: 10 µM
